From publication PMC6377231
Results are given in words; binding and its absence hold for the method and conditions named. Some results given as binding are weak or reduced against the parent protein; the word gives no strength.

The chains behind the UniProt entries cited, without tags or fusion partners. Where a name states a change or a piece, a line headed by the entry shows the natural chain unless it says otherwise.
UniProt P09220: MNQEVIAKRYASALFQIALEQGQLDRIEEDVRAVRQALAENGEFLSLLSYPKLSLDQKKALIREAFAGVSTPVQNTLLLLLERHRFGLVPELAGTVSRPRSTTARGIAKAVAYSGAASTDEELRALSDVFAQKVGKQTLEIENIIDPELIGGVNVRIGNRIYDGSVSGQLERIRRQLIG

Biological target: Bacillus PS3 ATP synthase subunit δ (Bacillus PS3) (UniProt P09220)
Test: cryo-EM structure; intact Bacillus PS3 ATP synthase in GDN, three rotational states at 3.0, 3.0 and 3.2 Å; focused refinement of the membrane-embedded region at 3.3 Å; both purified

binding: binds
B1: Bacillus PS3 ATP synthase subunit b (protein, UniProt P09221 12-160)
chain: EAAHGISGGTIIYQLLMFIILLALLRKFAWQPLMNIMKQREEHIATKSTRRKNDRQEAEKLLEEQRELMKQSRQEAQALIENAASLAEEQKEQIVASARAEAERVKEAAKKEIEREKEQAMAALREQVASLSVLIASKVIEKELTEQDQ
